PMC5923425, “Structural analysis of human ARS2 as a platform for co-transcriptional RNA sorting” (Nature Communications, 2018)

The chains behind the UniProt entries cited, without tags or fusion partners.
UniProt Q9H814: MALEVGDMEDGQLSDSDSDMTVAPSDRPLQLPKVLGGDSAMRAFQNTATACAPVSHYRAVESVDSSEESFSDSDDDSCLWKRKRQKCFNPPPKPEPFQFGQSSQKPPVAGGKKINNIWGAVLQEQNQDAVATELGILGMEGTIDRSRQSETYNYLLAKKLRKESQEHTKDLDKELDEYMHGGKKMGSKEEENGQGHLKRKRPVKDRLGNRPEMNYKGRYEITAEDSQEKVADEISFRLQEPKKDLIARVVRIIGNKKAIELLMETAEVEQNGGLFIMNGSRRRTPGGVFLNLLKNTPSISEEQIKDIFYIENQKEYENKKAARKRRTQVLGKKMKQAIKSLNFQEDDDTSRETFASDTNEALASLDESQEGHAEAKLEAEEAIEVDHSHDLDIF
UniProt Q09161: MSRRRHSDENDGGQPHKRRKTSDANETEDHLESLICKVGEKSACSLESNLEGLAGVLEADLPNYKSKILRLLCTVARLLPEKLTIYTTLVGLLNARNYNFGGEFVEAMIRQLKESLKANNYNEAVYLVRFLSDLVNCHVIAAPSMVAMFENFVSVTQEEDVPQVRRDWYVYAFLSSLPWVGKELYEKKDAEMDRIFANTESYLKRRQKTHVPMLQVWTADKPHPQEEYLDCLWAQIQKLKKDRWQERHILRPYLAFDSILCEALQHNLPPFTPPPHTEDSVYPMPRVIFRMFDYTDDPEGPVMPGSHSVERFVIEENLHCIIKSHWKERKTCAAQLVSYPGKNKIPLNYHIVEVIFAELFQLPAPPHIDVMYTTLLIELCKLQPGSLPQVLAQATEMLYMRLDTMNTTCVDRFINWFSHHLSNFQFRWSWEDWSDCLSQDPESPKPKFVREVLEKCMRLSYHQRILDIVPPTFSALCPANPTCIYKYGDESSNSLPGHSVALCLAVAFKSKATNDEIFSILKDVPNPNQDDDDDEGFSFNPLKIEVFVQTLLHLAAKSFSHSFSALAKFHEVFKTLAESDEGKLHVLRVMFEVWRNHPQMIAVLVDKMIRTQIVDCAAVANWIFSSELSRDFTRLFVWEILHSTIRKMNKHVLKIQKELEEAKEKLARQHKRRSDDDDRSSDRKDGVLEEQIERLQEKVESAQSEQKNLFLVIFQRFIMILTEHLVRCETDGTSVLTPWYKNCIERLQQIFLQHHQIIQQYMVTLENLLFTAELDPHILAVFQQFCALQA

Key:
Experiment in all cases: affinity purification with mass spectrometry; EGFP-tagged ARS2 constructs expressed in HEK 293T/17, lysis in 20 mM HEPES pH 7.4, 120 mM NaCl, 0.1% Triton X-100 with RNase H, GFP-Trap beads, TMT labelling, LC–MS/MS; controls EGFP and pcDNA3.1
EGFP–ARS2 wt (human) = target: T1, EGFP–ARS2 wt (human) (UniProt Q9BXP5)
T1 sequence: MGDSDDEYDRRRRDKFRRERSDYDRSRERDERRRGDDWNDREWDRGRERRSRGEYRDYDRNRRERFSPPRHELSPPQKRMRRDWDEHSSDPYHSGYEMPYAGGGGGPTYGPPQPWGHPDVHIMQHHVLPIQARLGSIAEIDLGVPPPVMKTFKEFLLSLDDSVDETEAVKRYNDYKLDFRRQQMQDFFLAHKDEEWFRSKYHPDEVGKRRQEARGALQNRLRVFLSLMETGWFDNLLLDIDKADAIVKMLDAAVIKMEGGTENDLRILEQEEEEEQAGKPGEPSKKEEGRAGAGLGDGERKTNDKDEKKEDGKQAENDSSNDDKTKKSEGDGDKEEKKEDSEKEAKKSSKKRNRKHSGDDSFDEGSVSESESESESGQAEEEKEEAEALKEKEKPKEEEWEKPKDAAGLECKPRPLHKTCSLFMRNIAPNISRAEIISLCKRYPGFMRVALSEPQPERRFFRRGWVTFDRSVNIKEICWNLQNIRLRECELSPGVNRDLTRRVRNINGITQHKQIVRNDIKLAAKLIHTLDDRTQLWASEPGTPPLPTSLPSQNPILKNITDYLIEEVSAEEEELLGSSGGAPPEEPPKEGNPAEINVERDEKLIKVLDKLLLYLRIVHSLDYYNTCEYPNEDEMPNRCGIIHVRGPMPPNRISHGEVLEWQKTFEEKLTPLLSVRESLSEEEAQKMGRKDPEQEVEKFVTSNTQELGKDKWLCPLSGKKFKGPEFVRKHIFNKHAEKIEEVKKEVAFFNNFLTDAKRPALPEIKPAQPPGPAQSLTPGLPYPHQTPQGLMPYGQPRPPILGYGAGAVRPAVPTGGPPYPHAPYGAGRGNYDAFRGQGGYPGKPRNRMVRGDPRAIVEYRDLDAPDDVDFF

[1] = target: T2, EGFP–ARS2^(K719A K722A K734A) (human) (UniProt Q9BXP5)
T2 sequence: T1 sequence with K719A, K722A, K734A

[2] = target: EGFP–ARS2^(R854A R859A F871A) (human) (UniProt Q9BXP5)
EGFP–ARS2^1–845 (human) = target: T3, EGFP–ARS2^1–845 (human) (UniProt Q9BXP5)
T3 sequence: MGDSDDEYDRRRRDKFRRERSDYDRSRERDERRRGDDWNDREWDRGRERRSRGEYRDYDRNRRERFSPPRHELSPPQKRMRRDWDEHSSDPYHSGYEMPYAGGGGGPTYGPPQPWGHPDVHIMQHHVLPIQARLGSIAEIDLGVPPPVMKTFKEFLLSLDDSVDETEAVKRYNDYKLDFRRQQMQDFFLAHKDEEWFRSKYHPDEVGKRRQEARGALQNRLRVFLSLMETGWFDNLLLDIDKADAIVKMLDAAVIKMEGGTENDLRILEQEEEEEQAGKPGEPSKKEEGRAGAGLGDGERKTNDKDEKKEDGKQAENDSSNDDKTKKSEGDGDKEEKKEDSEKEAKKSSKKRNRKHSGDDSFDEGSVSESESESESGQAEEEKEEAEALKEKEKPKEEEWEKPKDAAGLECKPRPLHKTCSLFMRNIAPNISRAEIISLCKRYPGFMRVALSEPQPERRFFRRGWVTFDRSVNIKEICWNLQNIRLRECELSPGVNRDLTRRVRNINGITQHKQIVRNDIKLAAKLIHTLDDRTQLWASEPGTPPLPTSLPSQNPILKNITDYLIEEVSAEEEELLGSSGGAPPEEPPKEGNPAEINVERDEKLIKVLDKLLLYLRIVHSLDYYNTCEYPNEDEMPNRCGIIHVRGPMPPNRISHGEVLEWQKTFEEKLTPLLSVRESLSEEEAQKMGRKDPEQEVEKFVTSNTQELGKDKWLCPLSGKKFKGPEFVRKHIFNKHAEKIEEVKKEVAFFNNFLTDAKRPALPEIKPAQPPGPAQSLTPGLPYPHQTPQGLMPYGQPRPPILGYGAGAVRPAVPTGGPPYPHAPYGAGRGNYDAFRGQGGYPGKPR

[3] = target: EGFP–ARS2^Δ692–743GSG (human) (UniProt Q9BXP5)

| binding (EGFP–ARS2 wt (human)) | binding [1] | binding [2] | binding (EGFP–ARS2^1–845 (human)) | binding [3] | Substance |
| --- | --- | --- | --- | --- | --- |
| binds | no binding | no binding | no binding | no binding | PHAX (endogenous) (from UniProt Q9H814 1-394) |
| binds | binds | no binding | no binding | binds | CBP80 (NCBP1) (endogenous) (from UniProt Q09161 1-790) |

Residue numbers refer to the chain shown, from its start. No constants are given. Whether binding was seen depends on the method and setting. Binding seen in cells or lysates may run through a third protein. These calls come from enrichment with a bait or labelling near it, and not all partners need be listed. For some of these results: A no says only that the protein was not detected with the bait. For some of these results: Tags and fused reporters may be left off the sequences shown.
